Data: PMC6085760
Results are given in words; binding and its absence hold for the method and conditions named. Some binding calls cover weakened binding; strength is not graded here.

By UniProt entry, the sequences of proteins in these tests, tags left out. Residues count along the entry.
UniProt P05067, residues 672-713: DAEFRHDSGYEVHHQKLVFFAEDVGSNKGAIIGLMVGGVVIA
UniProt P02769, residues 25-607: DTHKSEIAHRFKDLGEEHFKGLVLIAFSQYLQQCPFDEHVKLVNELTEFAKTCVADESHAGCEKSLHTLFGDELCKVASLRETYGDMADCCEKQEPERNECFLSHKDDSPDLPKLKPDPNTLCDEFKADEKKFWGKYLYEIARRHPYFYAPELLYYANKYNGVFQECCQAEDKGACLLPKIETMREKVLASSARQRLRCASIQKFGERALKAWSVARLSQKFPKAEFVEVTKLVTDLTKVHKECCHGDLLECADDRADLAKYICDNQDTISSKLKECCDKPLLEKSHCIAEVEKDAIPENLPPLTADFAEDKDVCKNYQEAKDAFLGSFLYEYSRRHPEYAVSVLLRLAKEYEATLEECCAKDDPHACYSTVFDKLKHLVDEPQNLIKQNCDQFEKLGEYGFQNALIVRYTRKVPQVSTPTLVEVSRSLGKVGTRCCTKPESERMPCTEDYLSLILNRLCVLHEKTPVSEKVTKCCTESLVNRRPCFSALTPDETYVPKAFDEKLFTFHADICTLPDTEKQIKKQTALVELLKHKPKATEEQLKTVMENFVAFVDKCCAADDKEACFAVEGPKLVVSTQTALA

Columns and labels:
[1] = target: Aβ1-42 fibrils grown in vitro (UniProt P05067); experiment: scanning transmission electron microscopy (STEM); Aβ fibrils grown in vitro incubated 30 min with fND solution (0.5 nM) under constant stirring; grids washed, negative staining with 1% phosphotungstic acid; both purified
[2] = target: Bovine serum albumin (BSA) fibrils (bovine) (UniProt P02769); experiment: condition: 30 µM for the protein and 0.5 nM for the fND; scanning transmission electron microscopy (STEM); BSA fibrils (30 µM protein) mixed with fND (0.5 nM), 30 min; grids washed, negative staining with 1% phosphotungstic acid; both purified

binding [1]: binds | binding [2]: no binding
Binder: RRRRRRRCLPFFD (C-terminal amide) [R7-CLPFFD peptide on the surface of nanodiamonds (functionalized nanodiamonds, fNDs)]
